Reference: PubChem BioAssay AID1508588 (Peter MacCallum Cancer Centre, 2020)
Assay: 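Genome-wide search for knock-downs that heighten vemurafenib action in melanoma cells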 (primary screen). System: human WM266.4 melanoma cells (BRAF V600 mutant). Reagent: siRNA pool against human genes, 40 nM. Time to read-out: 96 h from transfection to read-out. Treatment: vemurafenib 300 nM (about IC25), added 48 h after transfection, for 48 h; comparison arm got DMSO vehicle only. Read-out: 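Ratios to non-targeting siRNA for cell gain, counted as DAPI nuclei after minus before drug and averaged over two replicates, and for absorbance-read medium lactate per cell; both binned into fold-change classes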. Scale: cell gain with vemurafenib: higher = more cell gain than with non-targeting siRNA; lactate per cell with vemurafenib: higher = more lactate made per cell. Call rule: 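Enhancement is called by pairing each knock-down's vehicle-arm and drug-arm fold-change classes for viability or glycolysis; which class combinations qualify is not given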. Meaning of the calls: active = enhances vemurafenib effect; inactive = no enhancement seen.
Shown is a random part of about 18,000 reagents. Of all reagents, 790 (4.4%) got an active call. 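Calls rest on a combination of fold-change classes in drug and vehicle arms, not all shown here.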

gene knocked down | cell gain with vemurafenib | lactate per cell with vemurafenib | Call
KRTAP5-4 (keratin associated protein 5-4) | 0.48 | 1.06 | inactive
CASC3 (CASC3 exon junction complex subunit) | 0.71 | 0.1 | inactive
LRTM1 (leucine rich repeat transmembrane protein 1) | 1.06 | 0.74 | inactive
PCCA (propionyl-CoA carboxylase subunit alpha) | 0.64 | 1.16 | inactive
SAMSN1 (SAM domain, SH3 domain and nuclear localization signals 1) | 0.41 | 1.08 | inactive
ERMARD (ER membrane associated RNA degradation) | 0.89 | 1.21 | inactive
SLC2A3 | 0.63 | 0.32 | inactive
SLC11A2 | 0.45 | 1.74 | inactive
AVL9 (AVL9 cell migration associated) | 0.13 | 1.19 | inactive
SPDL1 (spindle apparatus coiled-coil protein 1) | 0.22 | 0.86 | inactive
ANGPTL8 (angiopoietin like 8) | 0.5 | 0.55 | inactive
TRMT5 (tRNA methyltransferase 5) | 0.82 | 1.08 | inactive
KRTAP1-3 (keratin associated protein 1-3) | 0.72 | 1.02 | inactive
CDC42EP1 (CDC42 effector protein 1) | 0.23 | 0.72 | inactive
VN1R1 (vomeronasal 1 receptor 1) | -0.09 | 2.7 | inactive
REEP1 (receptor accessory protein 1) | 0.56 | 0.36 | inactive
KCNK13 (potassium two pore domain channel subfamily K member 13) | 0.69 | 0.74 | inactive
P4HA2 (prolyl 4-hydroxylase subunit alpha 2) | 0.62 | 1.24 | inactive
ACKR3 (atypical chemokine receptor 3) | 0.38 | 2.1 | inactive
UPK1B (uroplakin 1B) | 0.76 | 0.44 | inactive

5 of these entries, reformatted.
{"gene knocked down": "TRMT5 (tRNA methyltransferase 5)", "cell gain with vemurafenib": 0.82, "lactate per cell with vemurafenib": 1.08, "Call": "inactive"}
{"gene knocked down": "KRTAP1-3 (keratin associated protein 1-3)", "cell gain with vemurafenib": 0.72, "lactate per cell with vemurafenib": 1.02, "Call": "inactive"}
{"gene knocked down": "CDC42EP1 (CDC42 effector protein 1)", "cell gain with vemurafenib": 0.23, "lactate per cell with vemurafenib": 0.72, "Call": "inactive"}
{"gene knocked down": "VN1R1 (vomeronasal 1 receptor 1)", "cell gain with vemurafenib": -0.09, "lactate per cell with vemurafenib": 2.7, "Call": "inactive"}
{"gene knocked down": "REEP1 (receptor accessory protein 1)", "cell gain with vemurafenib": 0.56, "lactate per cell with vemurafenib": 0.36, "Call": "inactive"}

Further records:
gene knocked down | cell gain with vemurafenib | lactate per cell with vemurafenib | Call
CCL4L1 (C-C motif chemokine ligand 4 like 1) | 0.41 | 1.56 | inactive
SLC35D3 | 0.33 | 1.15 | inactive
NMB (neuromedin B) | 0.93 | 0.55 | inactive
MMP24 (matrix metallopeptidase 24) | 0.43 | 1.31 | inactive
CREB3 (cAMP responsive element binding protein 3) | 0.59 | 0.8 | inactive
ITGA2 (integrin subunit alpha 2) | 0.35 | 1.29 | inactive
TAF1L (TATA-box binding protein associated factor 1 like) | 0.5 | 0.34 | inactive
RASGRF2 (Ras protein specific guanine nucleotide releasing factor 2) | 0.64 | 1.23 | inactive
AZIN2 (antizyme inhibitor 2) | 0.86 | 0.72 | inactive
B3GALT4 (beta-1,3-galactosyltransferase 4) | 0.4 | 1.32 | inactive
IQSEC1 (IQ motif and Sec7 domain ArfGEF 1) | 0.36 | 1.7 | inactive
OR5H6 (olfactory receptor family 5 subfamily H member 6) | 0.95 | 1.03 | inactive
GZMB (granzyme B) | 0.36 | 1.66 | inactive
LETMD1 (LETM1 domain containing 1) | 0.39 | 1.98 | inactive
